Literature values in patent USRE43029E1, “Process for preparing a creatine heterocyclic acid salt and method of use” (Bio-Engineered Supplements & Nutrition, Inc., priority 2003, dated 2011).
At least one compound was matched to its structure with a doubt left.

Settings: pyruvate alone; cited from earlier work

Structure (SMILES): CC(=O)C(=O)O [pyruvate]
- ergogenic benefit: no ergogenic benefit
